# Screen size: about 320,000 compounds; about 22,000 (6.9%) were called active. The inconclusive results got no clear call from the source; some entries with a clear call stand among them for comparison. The call rests on the fitted dose curve; in most records, active means well fitted inhibition curve with a large enough effect; inconclusive means small, poorly fitted or top-dose-only effect, or another doubt; inactive means no such curve, though single readings can be large or run the other way. Where the call is inconclusive, the potency comes from a doubtful curve fit.
# Experiment: Primary qHTS for delayed death inhibitors of the malarial parasite plastid, 96 hour incubation
# Conditions: P. falciparum luciferase reporter growth; series mostly up to 28.7 µM
# Outline: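 Cell-based qHTS: luciferase-tagged P. falciparum in erythrocytes (2% hematocrit, 0.05% parasitemia final) incubated with compounds for 96 hours, 37 C, 5% CO2; luciferase detection reagent then added and luminescence measured.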
# Potency means the concentration at half of the fitted maximal effect.
row,SMILES,Potency
1,COc1ccc(-n2nc(C(=O)NCC(=O)N3CCN(c4ccccc4F)CC3)c3ccccc3c2=O)cc1OC,"inconclusive: 3.29 µM [inhibitor, full curve]"
2,COc1ccc(Nc2nc(N3CCCCC3)c3ccccc3n2)cc1,active: 4.65 µM
3,COc1ccc(CCNS(=O)(=O)c2c(C)nc3scc(C)n3c2=O)cc1OC,inactive
4,O=C(NCc1ccc(F)cc1)c1ccc(Cl)c(NC2=NC3CS(=O)(=O)CC3S2)c1 (centres undefined),"inconclusive: 3.29 µM [inhibitor, single point]"
5,COCCNC(=O)c1cc(-c2ccccc2)n(Cc2cc(C)no2)n1,inactive
6,CC1=CC2=NC(=O)/C(=C\c3cc(C)n(-c4ccccc4)c3C)C(=N)N2O1,"inconclusive: 18.5 µM [inhibitor, single point]"
7,Cc1nn(-c2ccccc2)c(C)c1C1C(C#N)=C(N)Oc2n[nH]c(C)c21 (centres undefined),"inconclusive: 14.7 µM [inhibitor, single point]"
8,CC(NC(=O)Cc1ccccc1F)c1ccc(F)cc1 (centres undefined),inactive
9,Cc1ccc2oc(C(=O)N3CCC(O)(c4cccc(C(F)(F)F)c4)CC3)c(C)c2c1,inactive
10,CCN(CC)C(=O)C1CCCN(Cc2ccccc2C(F)(F)F)C1 (centres undefined),"inconclusive: 18.5 µM [inhibitor, partial curve, poor fit]"
11,CCOC(=O)c1ccc(NC(=O)COc2ccc(S(=O)(=O)NC(C)CC)cc2)cc1 (centres undefined),active: 10.4 µM
12,CCOc1ccccc1N1Cc2cc(C)c(C)cc2C1,"inconclusive: 1.47 µM [inhibitor, full curve]"
13,Cc1ccc2oc(=O)c3cnn(CC(=O)N(CCC(C)C)Cc4ccco4)c3c2c1,inactive
14,CCc1ccccc1N1CC23C=CC(O2)C(C(=O)OC)C3C1=O (centres undefined),"inconclusive: 1.47 µM [inhibitor, partial curve]"
15,CCOCCN(C(=O)c1ccccc1Cl)c1cccc(C)c1C,"inconclusive: 11.7 µM [inhibitor, single point]"
16,COc1ccc(OC)c(NC(=O)Nc2cccc(Cn3cccn3)c2)c1,"inconclusive: 18.5 µM [inhibitor, single point]"
17,Cn1c(SCC(=O)N2CCCC2=O)nc2ccccc21,inactive
18,CCOc1ccc(S(=O)(=O)N2CCOCC2)cc1NC(=O)Cc1c(F)cccc1Cl,"inconclusive: 2.62 µM [inhibitor, partial curve]"
19,Cc1cccc(C(=O)Nc2nnc(-c3ccco3)o2)c1,inactive
20,CCOc1cccc(-c2nnc3sc(COc4ccc(OC)cc4)nn23)c1,"inconclusive: 11.7 µM [inhibitor, single point]"
21,Cc1cccc(NC(=O)c2cc(S(=O)(=O)N3CCOCC3)cn2C)c1C,active: 6.57 µM
22,Cc1ccc2nc(-c3ccccn3)cc(C(=O)N3CCN(c4ncccn4)CC3)c2c1,active: 2.62 µM
23,COc1ccc(-c2cc(=O)oc3c(C)c(OCC(=O)Nc4cccnc4)ccc23)cc1,inactive

# 4 structures from above, ordered by SMILES length, rising.
row,SMILES,Potency
15,CCOCCN(C(=O)c1ccccc1Cl)c1cccc(C)c1C,"inconclusive: 11.7 µM [inhibitor, single point]"
14,CCc1ccccc1N1CC23C=CC(O2)C(C(=O)OC)C3C1=O (centres undefined),"inconclusive: 1.47 µM [inhibitor, partial curve]"
5,COCCNC(=O)c1cc(-c2ccccc2)n(Cc2cc(C)no2)n1,inactive
20,CCOc1cccc(-c2nnc3sc(COc4ccc(OC)cc4)nn23)c1,"inconclusive: 11.7 µM [inhibitor, single point]"

# (continued)

row,SMILES,Potency
1,O=C(CCC(=O)c1ccc(Cl)cc1)NCc1ccccc1,"inconclusive: 3.29 µM [inhibitor, full curve]"
2,CCc1ccc(N(CC(=O)Nc2ccc(NC(C)=O)cc2)S(=O)(=O)c2ccccc2)cc1,"inconclusive: 10.4 µM [inhibitor, single point]"
3,O=C(COC(=O)c1c2c(nc3ccccc13)/C(=C/c1ccco1)CC2)NC1CCCC1,"inconclusive: 1.47 µM [inhibitor, full curve]"
4,C=C1CCC[C@]2(C)C[C@H]3OC(=O)C(CNC(C)(CO)CO)[C@H]3CC12 (some centres undefined),"inconclusive: 8.28 µM [inhibitor, partial curve]"
5,Cc1nn(CC(=O)NCCN2CCCCCC2)c(=O)c2nn(-c3ccccc3)c(C)c12,"inconclusive: 3.29 µM [inhibitor, partial curve, poor fit]"
6,CCOCCCNC(=O)COC(=O)/C=C/c1ccc(S(=O)(=O)N2CCc3ccccc32)cc1,inactive
7,O=C(/C=C/c1ccccc1)C1C(=O)c2ccccc2C1=O,inactive
8,CC(=O)n1nc(-c2ccco2)nc1N,"inconclusive: 0.147 µM [inhibitor, full curve, poor fit]"
9,COc1ccc(-n2nnnc2SCC(=O)Nc2cccc(O)c2)cc1,"inconclusive: 18.5 µM [inhibitor, single point]"
10,CCC(C(=O)NC(N)=O)c1ccccc1 (centres undefined),inactive
11,CC(C)CCN1CCN(CC(c2ccccc2)c2ccccc2)CC1CCO (centres undefined),"inconclusive: 18.5 µM [inhibitor, single point]"
12,COc1ccc(Cc2noc(CN3CCN(Cc4csc(C)n4)CC3)n2)cc1OC,inactive
13,CCCCCCCCNC(=O)/C(C#N)=C/c1ccc(SC)cc1,inactive
14,CCOC(=O)CC(NC(=O)C(CC)c1ccccc1)c1ccccc1Cl (centres undefined),"inconclusive: 10.4 µM [inhibitor, partial curve, poor fit]"
15,CC1CN(S(=O)(=O)c2cccc(C(=O)OCC(=O)Nc3ccc4c(c3)OCO4)c2)CC(C)O1 (centres undefined),"inconclusive: 18.5 µM [inhibitor, single point]"
16,Cc1ccc(C(=O)/C=C/C(=O)O)cc1,"inconclusive: 5.86 µM [inhibitor, single point]"
17,COc1ccc(NC(=O)CN2CCN(C(=O)c3ccco3)CC2)c(OC)c1,inactive
18,CC(=O)N1N=C(c2ccc(NS(=O)(=O)c3ccccc3)cc2)CC1c1ccco1 (centres undefined),"inconclusive: 14.7 µM [inhibitor, partial curve]"
19,CS(=O)(=O)Nc1ccc(C2=NN(S(C)(=O)=O)C(c3ccccc3)C2)cc1 (centres undefined),inactive
20,C=CCOc1c(Cl)cc(CNCCC)cc1Cl,"inconclusive: 18.5 µM [inhibitor, single point]"
21,COc1ccc(CNS(=O)(=O)NCc2ccc(C)cc2)cc1,inactive
22,COc1ccc(CN2CCN(CCCCOc3ccc(Cl)cc3)CC2)c(OC)c1OC,inactive
23,CCOC(=O)N1CCC(NC(=O)c2ccc3c(c2)N(Cc2ccc(F)cc2)CCS3)CC1,"inconclusive: 13.1 µM [inhibitor, partial curve, poor fit]"

row,SMILES,Potency
1,Cc1c(C)n(Cc2ccccc2)c2ccc(C(=O)OCCN(C)C)cc12,"inconclusive: 18.5 µM [inhibitor, single point]"
2,Cc1ccc(NC(=O)C2CCN(S(=O)(=O)c3c(C)noc3/C=C/N(C)C)CC2)cc1,"inconclusive: 4.15 µM [inhibitor, partial curve, poor fit]"
3,CCOC(=O)C1(c2ccccc2)CCN(CCC(=O)Nc2ccccc2OC)CC1,"inconclusive: 3.29 µM [inhibitor, partial curve]"
4,CC1CCCCN1CC(=O)NC(c1ccccc1)c1ccccc1 (centres undefined),"inconclusive: 0.0033 µM [inhibitor, full curve, poor fit]"
5,COCCCNCCCCOc1cccc(Br)c1,"inconclusive: 18.5 µM [inhibitor, single point]"
6,Cc1ccccc1-n1c(=O)cc(N2CCCCCC2)[nH]c1=O,"inconclusive: 11.7 µM [inhibitor, single point]"
7,Cc1nn(-c2ccccc2)c(Cl)c1C(=O)OCC(=O)NCCc1ccc(S(N)(=O)=O)cc1,"inconclusive: 9.28 µM [inhibitor, single point]"
8,O=C(CC(c1ccccc1)c1ccccc1)NCCOCc1ccccc1,"inconclusive: 11.7 µM [inhibitor, partial curve, poor fit]"
9,COc1ccc(CCNC(=O)c2cc3c(=O)n4ccccc4nc3n(C3CCCCC3)c2=N)cc1OC,active: 10.4 µM
10,CCOC(=O)/C(=N/Nc1ccc(Cl)cc1)Sc1nnnn1-c1ccc(C)cc1,"inconclusive: 13.1 µM [inhibitor, single point]"
11,CCC1CCCCN1c1nc(-c2cccc(OC)c2O)nc2ccccc12 (centres undefined),"inconclusive: 13.1 µM [inhibitor, single point]"
12,O=C(NCCCCc1ccccc1)Nc1ccc(F)cc1,"inconclusive: 11.7 µM [inhibitor, single point]"
13,O=C(Nc1ccc(Cl)c(Cl)c1)Nc1ccc(N2CCCC2)c(S(=O)(=O)Nc2ccccc2Cl)c1,active: 3.7 µM
14,COc1ccc(CNCC(O)COc2ccc(C(C)(C)c3ccccc3)cc2)cc1 (centres undefined),"inconclusive: 5.22 µM [inhibitor, partial curve]"
15,Cc1ccc(OCC(=O)Nc2ccc(NC(=O)c3cccs3)cc2)c(C)c1,"inconclusive: 14.7 µM [inhibitor, partial curve, poor fit]"
16,COc1ccc(C(=O)Nc2ccc(Cl)cc2C(=O)NCc2ccco2)cc1,"inconclusive: 5.22 µM [inhibitor, partial curve, poor fit]"
17,CC(C)C[C@@H](CSc1ccccc1)N1CCN(CC(C)C)CCC1=O,"inconclusive: 11.7 µM [inhibitor, partial curve, poor fit]"
18,CCOC(=O)Cn1cnc2c(cnn2-c2ccc(OC)cc2)c1=O,"inconclusive: 18.5 µM [inhibitor, single point]"
19,Cc1ccccc1OCC(=O)NCCN(C)C,"inconclusive: 18.5 µM [inhibitor, single point]"
20,COc1ccc2c(c1)Cc1sc(NC(=O)c3ccco3)nc1-2,"inconclusive: 2.94 µM [inhibitor, partial curve, poor fit]"
21,COc1ccc(NC(=O)CC(NCCc2ccccc2)C(=O)O)c(OC)c1 (centres undefined),inactive
22,CCN(CC(=O)N1CCN(Cc2ccccc2)CC1)S(=O)(=O)c1ccc(F)cc1,"inconclusive: 1.65 µM [inhibitor, partial curve, poor fit]"
23,Cc1ccc(C(=O)OCc2c(C)noc2C)cc1NC(=O)c1ccco1,active: 10.4 µM

# Reference: PubChem BioAssay AID504834 (National Center for Advancing Translational Sciences (NCATS), 2011)
